Reference: patent US12508262B2, “Methods of using ALK2 inhibitors” (Keros Therapeutics, Inc., priority 2020, dated 2025)

Tested on: mouse model of chronic kidney disease (CKD)
Test: Adenine-induced mouse model of chronic kidney disease
Assay type: in vivo, C57Bl/6 mice
Settings: adenine 50 mg/kg PO daily, Day 42 (model induction)
Description: To induce chronic kidney disease (CKD), 6-week-old C57Bl/6 mice were dosed daily via PO administration with 50 mg/kg of adenine or vehicle. After six weeks of adenine administration, a representative group of mice were taken down and tested to confirm anemia. Concomitantly, the remainder of the CKD mice began dosing with either vehicle or the compound of Formula I-42 5 mg/kg PO daily. Mice were dosed with vehicle or the compound of Formula I-42 while still receiving daily adenine for 10 days. The study was terminated at 52 days and hematology (Heska, Element HT-5), serum hepcidin (Intrinsic Biosciences, Hepcidin Murine Compete), and serum iron (Bioassay Systems, QuantiChrom Kit) levels were assessed.

## Nc1ncnc2nc[nH]c12 [adenine, reference compound]
  serum hepcidin values, higher than vehicle treated mice: 248.9%
  serum iron values, lower than vehicle treated mice: 37.6%
